The target of this assay is poly(ADP) ribose polymerase 1 (PARP1), endogenous (human (endogenous in EW-8)) (UniProt P09874). Briefly: co-IP; EW-8 cells with or without temozolomide (1 mM, 2 h); PARP1 pulled down, immunoblotting; IgG control. A general note: In western blotting, separated proteins are transferred to a membrane and probed.

Chains of the proteins cited; added tags and fusions are not shown.
UniProt P09874: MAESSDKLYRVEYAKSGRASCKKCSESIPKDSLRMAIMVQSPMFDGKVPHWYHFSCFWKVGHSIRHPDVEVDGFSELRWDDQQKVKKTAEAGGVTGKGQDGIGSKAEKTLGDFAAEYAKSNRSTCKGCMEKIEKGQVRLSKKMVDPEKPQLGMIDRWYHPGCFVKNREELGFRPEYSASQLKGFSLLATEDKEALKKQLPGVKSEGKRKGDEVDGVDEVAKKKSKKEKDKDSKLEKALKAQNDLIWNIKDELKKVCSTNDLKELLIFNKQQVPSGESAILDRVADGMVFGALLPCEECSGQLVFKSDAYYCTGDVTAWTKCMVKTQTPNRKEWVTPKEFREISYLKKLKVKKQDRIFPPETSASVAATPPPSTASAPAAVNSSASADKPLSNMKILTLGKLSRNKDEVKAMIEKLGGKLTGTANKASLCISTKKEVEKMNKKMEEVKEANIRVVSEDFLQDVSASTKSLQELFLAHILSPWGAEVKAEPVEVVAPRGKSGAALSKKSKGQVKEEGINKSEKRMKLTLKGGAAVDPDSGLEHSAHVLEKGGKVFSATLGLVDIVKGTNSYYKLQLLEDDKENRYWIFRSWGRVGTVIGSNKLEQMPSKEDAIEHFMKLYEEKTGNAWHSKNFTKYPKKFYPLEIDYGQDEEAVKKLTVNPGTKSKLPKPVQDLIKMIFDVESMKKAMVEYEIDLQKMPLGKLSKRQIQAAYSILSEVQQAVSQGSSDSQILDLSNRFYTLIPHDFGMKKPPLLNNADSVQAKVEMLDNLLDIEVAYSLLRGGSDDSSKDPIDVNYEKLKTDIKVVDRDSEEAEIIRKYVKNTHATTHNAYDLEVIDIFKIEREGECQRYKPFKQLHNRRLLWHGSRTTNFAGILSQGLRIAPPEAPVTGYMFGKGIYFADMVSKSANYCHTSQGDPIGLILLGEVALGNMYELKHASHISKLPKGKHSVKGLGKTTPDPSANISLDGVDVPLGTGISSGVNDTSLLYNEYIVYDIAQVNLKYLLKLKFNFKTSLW
UniProt Q9UGN5: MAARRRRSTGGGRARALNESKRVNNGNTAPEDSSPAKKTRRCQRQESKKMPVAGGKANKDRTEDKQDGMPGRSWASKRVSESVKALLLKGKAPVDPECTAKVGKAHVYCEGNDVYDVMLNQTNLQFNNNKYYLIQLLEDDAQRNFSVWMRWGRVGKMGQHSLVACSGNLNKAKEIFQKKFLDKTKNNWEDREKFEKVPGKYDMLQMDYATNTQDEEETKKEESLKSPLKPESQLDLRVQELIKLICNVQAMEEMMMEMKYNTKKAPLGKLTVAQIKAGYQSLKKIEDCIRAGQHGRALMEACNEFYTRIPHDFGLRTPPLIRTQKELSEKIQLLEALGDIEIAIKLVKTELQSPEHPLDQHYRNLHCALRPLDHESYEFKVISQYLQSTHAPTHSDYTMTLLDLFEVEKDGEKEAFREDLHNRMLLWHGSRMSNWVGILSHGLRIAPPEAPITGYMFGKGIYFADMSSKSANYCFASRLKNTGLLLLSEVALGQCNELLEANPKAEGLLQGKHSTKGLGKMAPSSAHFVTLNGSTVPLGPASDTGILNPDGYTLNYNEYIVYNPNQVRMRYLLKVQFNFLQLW
UniProt P04406: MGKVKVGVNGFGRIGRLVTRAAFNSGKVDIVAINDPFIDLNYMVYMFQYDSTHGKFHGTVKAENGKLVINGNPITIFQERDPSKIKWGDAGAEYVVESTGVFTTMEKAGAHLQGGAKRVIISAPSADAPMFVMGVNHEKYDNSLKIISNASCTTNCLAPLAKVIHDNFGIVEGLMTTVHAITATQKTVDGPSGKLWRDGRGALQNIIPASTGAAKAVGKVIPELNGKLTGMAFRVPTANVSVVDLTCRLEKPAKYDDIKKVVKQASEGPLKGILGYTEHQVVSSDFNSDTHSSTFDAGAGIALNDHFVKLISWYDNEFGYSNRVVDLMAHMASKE

No constants are given. Whether binding was seen depends on the method and setting. Binding seen in cells or lysates may run through a third protein. Some entries that bind do so weakly or less than the wild type.

The results in this text go back to publication PMC9563463, “PARP1-MGMT complex underpins pathway crosstalk in O^6-methylguanine repair” (Journal of Hematology & Oncology, 2022).

“PARP2, endogenous (from UniProt Q9UGN5 1-583)”: the binding entry is given as “binds”. On to “GAPDH, endogenous (from UniProt P04406 1-335)”, for which the binding entry is “no binding”.
